Data published in patent US20040014151A1 (published 2004).

Chains of the proteins cited; added tags and fusions are not shown. Residues count along the entry.
UniProt P07120, residues 2-173: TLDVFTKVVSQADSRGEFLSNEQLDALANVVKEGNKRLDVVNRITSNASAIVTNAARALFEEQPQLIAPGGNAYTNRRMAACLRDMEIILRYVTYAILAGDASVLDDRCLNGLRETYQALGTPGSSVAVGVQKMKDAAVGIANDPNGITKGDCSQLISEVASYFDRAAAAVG
UniProt P07121: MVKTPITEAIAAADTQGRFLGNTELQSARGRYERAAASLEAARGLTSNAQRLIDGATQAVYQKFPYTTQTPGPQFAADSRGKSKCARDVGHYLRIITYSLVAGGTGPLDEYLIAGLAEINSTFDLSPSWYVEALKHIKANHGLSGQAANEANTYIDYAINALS

Molecular target: native C-phycocyanin β subunit (holo-β) (Anabaena sp. PCC7120) (UniProt P07120)
Experiment: IMAC copurification from cpcF mutant; SDS-PAGE, mass spectrometry

binding: binds
Substance: apo-HTα (His-tagged C-phycocyanin α subunit without bilin) (from UniProt P07121 1-163)

These are yes or no findings as the source states them, for the method shown. Binding seen in cells or lysates may run through a third protein. These calls come from enrichment with a bait or labelling near it, and not all partners need be listed.
